Results are given in words; binding and its absence hold for the method and conditions named. Binding seen in cells or lysates may run through a third protein. Here binding means that the protein was enriched with, or labelled near, the bait; the list need not be complete. For part of these data: A no says only that the protein was not detected with the bait.
Legend:
[1] = target: V1–FAM134B and V2–FAM134B (WT) (UniProt Q9H6L5); experiment: affinity purification with mass spectrometry; BiCAP: HEK 293T co-transfected with V1- and V2-tagged proteins for 16 h, lysis with 1% Triton X-100 (50 mM Tris-HCl pH 7.5, 150 mM NaCl, 0.5 mM EDTA), refolded Venus captured on GFP-trap beads overnight at 4 °C, on-bead trypsin digestion, label-free LC–MS; hits log2 enrichment >= 2, P <= 0.05
[2] = target: V1–FAM134C WT and V2–FAM134C WT (UniProt Q86VR2); experiment: as above

Amino acid sequences for entries named in this document (tags omitted).
UniProt Q9H6L5: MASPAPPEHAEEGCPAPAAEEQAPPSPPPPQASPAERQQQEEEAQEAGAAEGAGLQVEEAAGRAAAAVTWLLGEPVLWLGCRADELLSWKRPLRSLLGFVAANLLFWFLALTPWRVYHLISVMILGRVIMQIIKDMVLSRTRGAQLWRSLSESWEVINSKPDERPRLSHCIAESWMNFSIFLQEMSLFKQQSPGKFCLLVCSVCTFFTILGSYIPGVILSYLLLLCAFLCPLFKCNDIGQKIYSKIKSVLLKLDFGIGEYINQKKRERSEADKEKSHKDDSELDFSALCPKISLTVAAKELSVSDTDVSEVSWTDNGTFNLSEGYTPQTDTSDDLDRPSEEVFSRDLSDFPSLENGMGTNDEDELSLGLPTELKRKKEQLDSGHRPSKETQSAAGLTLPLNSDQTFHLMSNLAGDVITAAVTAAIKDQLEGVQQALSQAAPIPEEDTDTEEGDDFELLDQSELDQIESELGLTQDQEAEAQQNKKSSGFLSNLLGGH
UniProt Q86VR2: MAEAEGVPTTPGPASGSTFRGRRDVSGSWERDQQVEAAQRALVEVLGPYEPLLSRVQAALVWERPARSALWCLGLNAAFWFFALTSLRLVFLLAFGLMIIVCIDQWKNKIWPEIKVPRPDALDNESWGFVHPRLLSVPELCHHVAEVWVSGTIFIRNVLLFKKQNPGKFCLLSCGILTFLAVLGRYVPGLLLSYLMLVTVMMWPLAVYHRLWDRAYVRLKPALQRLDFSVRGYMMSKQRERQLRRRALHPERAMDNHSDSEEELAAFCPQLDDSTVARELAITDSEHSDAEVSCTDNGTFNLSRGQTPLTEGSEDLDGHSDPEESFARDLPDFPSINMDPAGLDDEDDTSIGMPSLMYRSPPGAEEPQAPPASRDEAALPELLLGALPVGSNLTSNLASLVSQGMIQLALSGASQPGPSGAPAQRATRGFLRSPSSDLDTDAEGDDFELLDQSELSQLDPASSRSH
UniProt Q15041: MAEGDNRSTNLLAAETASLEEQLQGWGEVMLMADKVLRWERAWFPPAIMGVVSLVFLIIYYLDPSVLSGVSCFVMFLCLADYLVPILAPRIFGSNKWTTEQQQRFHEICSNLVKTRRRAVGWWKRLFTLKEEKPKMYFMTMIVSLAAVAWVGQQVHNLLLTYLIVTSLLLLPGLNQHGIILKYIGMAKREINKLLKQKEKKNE
UniProt Q96CV9: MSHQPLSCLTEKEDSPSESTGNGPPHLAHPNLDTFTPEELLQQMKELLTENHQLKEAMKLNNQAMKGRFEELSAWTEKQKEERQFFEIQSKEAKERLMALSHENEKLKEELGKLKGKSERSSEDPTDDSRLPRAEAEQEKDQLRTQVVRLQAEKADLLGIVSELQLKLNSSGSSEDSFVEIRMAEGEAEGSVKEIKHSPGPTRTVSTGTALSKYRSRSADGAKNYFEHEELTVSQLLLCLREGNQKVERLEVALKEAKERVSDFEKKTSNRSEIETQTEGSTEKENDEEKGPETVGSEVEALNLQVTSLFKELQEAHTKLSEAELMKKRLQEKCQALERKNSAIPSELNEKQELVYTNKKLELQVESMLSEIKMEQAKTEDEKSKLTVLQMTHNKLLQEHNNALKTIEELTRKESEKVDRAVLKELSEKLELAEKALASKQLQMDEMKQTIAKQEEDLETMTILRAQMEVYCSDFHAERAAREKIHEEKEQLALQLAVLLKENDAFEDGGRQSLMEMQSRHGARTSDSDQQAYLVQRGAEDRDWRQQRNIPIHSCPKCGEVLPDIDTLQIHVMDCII

| binding [1] | binding [2] | Substance |
| --- | --- | --- |
| binds | – | ARL6IP1 (from UniProt Q15041 1-203) |
| no binding | – | OPTN (from UniProt Q96CV9 1-577) |
| binds | – | V1–FAM134B and V2–FAM134B (WT) (from UniProt Q9H6L5 1-497) |
| binds | binds | V1–FAM134C WT and V2–FAM134C WT (from UniProt Q86VR2 1-466) |
| no binding | – | p62 (from UniProt Q13501 1-440) |

Source: article PMC10247366
